The results in this text go back to publication PMC6341105.

By UniProt entry, the sequences of proteins in these tests, tags left out.
UniProt Q76L83: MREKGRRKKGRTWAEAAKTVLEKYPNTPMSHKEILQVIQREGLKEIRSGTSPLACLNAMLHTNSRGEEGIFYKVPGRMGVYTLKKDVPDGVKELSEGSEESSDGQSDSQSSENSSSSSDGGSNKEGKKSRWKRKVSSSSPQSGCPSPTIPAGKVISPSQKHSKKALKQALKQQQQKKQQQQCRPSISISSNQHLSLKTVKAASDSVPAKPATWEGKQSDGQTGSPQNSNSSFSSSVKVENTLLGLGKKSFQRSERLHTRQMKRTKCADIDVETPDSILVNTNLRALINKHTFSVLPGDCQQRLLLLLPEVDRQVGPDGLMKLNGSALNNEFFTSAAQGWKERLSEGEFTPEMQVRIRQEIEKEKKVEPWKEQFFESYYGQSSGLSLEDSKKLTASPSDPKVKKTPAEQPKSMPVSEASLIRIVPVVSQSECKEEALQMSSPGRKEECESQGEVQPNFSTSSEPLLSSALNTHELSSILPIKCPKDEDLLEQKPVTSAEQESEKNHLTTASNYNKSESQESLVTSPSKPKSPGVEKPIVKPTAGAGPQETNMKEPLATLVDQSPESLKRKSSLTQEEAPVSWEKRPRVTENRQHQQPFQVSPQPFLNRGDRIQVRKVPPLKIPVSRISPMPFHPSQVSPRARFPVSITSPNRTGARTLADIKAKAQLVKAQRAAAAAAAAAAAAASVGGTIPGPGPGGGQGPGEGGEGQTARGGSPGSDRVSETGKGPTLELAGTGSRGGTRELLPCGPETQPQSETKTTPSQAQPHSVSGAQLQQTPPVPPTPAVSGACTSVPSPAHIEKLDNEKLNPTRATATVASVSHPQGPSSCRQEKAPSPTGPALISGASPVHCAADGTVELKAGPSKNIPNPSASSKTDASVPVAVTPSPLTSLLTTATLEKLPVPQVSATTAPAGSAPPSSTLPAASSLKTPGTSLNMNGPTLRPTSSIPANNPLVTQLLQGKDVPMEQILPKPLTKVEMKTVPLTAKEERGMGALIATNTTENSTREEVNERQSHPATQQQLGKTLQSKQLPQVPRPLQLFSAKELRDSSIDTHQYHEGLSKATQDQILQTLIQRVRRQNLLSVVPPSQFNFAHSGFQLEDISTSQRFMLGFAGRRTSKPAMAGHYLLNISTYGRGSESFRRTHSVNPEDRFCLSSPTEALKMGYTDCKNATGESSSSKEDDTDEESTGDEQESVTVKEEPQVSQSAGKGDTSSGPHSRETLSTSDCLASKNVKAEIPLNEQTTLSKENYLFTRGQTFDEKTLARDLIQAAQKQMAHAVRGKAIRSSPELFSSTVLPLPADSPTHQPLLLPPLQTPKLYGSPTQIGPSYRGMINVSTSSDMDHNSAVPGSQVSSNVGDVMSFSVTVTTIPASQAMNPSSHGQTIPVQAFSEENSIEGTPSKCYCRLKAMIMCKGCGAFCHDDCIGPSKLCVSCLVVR
UniProt Q92560: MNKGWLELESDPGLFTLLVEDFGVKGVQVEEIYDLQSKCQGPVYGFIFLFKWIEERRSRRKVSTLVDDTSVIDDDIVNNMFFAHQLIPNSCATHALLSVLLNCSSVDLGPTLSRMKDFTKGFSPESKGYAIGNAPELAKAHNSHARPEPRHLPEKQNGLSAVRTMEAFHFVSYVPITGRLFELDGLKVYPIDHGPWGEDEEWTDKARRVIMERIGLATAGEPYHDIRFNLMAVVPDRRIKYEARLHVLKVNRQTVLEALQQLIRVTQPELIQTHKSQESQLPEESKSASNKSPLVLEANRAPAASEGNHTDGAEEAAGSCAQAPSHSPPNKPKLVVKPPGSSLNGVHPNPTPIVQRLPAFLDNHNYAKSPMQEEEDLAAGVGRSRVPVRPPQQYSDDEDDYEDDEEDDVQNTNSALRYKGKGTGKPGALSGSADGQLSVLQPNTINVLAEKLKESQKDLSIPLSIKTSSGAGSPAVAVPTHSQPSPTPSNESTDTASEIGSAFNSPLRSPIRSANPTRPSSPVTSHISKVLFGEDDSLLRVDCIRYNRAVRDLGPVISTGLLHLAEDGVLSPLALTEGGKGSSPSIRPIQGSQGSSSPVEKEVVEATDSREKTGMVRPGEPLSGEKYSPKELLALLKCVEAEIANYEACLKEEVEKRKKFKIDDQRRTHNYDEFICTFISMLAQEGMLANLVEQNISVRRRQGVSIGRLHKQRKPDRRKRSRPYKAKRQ
UniProt Q01167: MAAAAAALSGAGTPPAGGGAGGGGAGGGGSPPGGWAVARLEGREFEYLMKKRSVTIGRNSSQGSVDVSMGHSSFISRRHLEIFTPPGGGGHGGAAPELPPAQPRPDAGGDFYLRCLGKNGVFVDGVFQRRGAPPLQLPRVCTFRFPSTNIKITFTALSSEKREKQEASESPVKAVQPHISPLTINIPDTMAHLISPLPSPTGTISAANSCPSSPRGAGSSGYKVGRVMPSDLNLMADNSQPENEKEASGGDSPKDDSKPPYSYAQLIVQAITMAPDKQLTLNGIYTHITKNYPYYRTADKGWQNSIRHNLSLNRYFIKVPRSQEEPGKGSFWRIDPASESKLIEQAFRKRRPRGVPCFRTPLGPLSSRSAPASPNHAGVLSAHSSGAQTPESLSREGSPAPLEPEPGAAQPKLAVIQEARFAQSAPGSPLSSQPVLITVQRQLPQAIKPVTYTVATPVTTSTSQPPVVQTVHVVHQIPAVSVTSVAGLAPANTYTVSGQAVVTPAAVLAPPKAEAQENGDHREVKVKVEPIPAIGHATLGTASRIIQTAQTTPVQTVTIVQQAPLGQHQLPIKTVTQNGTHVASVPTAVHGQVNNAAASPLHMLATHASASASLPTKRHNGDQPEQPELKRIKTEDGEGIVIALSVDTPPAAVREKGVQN
UniProt Q9BZ95: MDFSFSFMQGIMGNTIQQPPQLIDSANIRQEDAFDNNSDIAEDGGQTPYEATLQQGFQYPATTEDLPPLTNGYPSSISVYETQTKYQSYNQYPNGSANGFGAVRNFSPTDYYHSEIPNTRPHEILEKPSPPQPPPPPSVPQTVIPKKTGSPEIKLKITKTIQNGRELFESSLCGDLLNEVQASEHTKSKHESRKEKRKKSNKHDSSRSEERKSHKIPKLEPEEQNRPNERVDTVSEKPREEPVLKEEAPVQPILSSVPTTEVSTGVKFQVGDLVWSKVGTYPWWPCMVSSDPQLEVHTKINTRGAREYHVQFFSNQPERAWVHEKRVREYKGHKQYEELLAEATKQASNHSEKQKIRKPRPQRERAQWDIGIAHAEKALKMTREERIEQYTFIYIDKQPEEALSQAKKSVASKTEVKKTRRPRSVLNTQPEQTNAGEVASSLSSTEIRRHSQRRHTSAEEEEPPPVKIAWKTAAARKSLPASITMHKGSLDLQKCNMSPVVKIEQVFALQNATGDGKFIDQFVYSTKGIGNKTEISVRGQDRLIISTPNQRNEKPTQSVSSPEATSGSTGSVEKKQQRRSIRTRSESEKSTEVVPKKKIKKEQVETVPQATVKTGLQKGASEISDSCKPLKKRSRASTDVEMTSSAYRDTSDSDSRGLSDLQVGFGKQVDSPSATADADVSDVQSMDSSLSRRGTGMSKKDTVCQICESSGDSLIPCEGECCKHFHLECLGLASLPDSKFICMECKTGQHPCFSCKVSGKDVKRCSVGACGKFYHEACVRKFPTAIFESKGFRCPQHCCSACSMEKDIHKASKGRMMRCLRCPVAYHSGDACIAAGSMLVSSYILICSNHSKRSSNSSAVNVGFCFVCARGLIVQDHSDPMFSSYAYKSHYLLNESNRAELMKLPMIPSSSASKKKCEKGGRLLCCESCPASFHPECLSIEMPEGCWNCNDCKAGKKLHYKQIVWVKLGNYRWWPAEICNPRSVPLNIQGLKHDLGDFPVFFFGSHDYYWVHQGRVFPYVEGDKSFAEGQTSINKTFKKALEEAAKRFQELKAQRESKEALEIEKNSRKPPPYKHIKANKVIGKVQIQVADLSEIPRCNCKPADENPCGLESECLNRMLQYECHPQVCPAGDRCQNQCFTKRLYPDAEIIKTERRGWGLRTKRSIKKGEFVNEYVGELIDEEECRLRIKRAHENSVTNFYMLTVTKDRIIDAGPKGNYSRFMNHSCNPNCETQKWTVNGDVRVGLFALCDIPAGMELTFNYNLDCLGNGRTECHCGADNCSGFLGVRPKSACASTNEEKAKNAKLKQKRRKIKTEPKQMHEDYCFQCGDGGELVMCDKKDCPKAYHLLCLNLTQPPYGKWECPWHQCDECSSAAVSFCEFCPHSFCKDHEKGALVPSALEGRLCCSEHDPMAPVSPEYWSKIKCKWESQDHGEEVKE

What all share (experiment): affinity purification with mass spectrometry; 100 mg HeLa nuclear extract of cells stably expressing the Flag-tagged bait, dialysed in BC250 (50 mM Tris pH 8.0, 250 mM KCl, 1 mM EDTA, 10% glycerol), anti-FLAG M2 affinity gel overnight, washed with BC250 + 0.05% NP-40, eluted with 0.2 mg/ml Flag peptide; compared with empty vector cells
Assay [1] deals with T1, Flag-tagged KDM1B (2xFlag-2xHA-KDM1B) expressed in HeLa cells (UniProt Q8NB78).
T1 sequence: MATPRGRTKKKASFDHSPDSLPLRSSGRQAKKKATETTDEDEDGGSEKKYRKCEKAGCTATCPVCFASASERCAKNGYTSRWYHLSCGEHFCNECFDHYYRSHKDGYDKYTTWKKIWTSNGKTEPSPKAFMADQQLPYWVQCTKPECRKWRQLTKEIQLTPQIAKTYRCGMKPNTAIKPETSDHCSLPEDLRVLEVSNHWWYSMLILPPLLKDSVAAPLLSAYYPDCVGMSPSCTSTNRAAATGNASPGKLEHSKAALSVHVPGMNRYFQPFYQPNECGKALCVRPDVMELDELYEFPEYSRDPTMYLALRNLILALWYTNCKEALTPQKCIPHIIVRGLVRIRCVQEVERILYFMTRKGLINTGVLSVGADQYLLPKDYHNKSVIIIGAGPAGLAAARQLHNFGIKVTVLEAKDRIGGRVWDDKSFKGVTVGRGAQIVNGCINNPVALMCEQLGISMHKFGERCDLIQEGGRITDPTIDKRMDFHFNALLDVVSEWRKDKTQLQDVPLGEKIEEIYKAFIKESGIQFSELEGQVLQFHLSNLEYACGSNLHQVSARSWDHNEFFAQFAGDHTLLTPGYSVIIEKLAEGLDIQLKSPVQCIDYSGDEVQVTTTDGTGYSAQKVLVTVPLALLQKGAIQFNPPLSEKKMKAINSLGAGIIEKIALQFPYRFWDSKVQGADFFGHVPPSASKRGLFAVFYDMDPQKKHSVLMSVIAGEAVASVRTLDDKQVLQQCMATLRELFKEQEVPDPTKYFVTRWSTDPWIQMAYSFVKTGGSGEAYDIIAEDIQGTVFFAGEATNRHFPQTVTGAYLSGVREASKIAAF

For assay [2], the target named is Flag-tagged ASXL2 (2xFlag-2xHA-ASXL2) overexpressed in HeLa cells (UniProt Q76L83).
The target in assay [3] is Flag-tagged BAP1 (2xFlag-2xHA-BAP1) overexpressed in HeLa cells (UniProt Q92560).

No constants are given. Whether binding was seen depends on the method and setting. In cells and extracts the contact can be indirect. Here binding means that the protein was enriched with, or labelled near, the bait; the list need not be complete. For part of these data: No binding means not detected with the bait. For part of these data: Where a sequence is shown, tags or fusion partners need not be part of it.

Take “ASXL2 (endogenous, HeLa) (from UniProt Q76L83 1-1435)”: the binding entry in assay [1] was “binds”. Regarding “FOXK2 (endogenous, HeLa) (from UniProt Q01167 1-660)”, in assay [1], the binding entry is listed as “no binding”. On to “HCFC1 (endogenous, HeLa) (human (endogenous in HeLa))”, for which the binding result in assay [1] was “no binding”. Still for that read-out and setting: next, “NSD3 (endogenous, HeLa) (from UniProt Q9BZ95 1-1437) (enzyme)”: “binds”.

B1: KDM1B (endogenous, HeLa) (enzyme, UniProt Q8NB78 1-822)
chain: MATPRGRTKKKASFDHSPDSLPLRSSGRQAKKKATETTDEDEDGGSEKKYRKCEKAGCTATCPVCFASASERCAKNGYTSRWYHLSCGEHFCNECFDHYYRSHKDGYDKYTTWKKIWTSNGKTEPSPKAFMADQQLPYWVQCTKPECRKWRQLTKEIQLTPQIAKTYRCGMKPNTAIKPETSDHCSLPEDLRVLEVSNHWWYSMLILPPLLKDSVAAPLLSAYYPDCVGMSPSCTSTNRAAATGNASPGKLEHSKAALSVHVPGMNRYFQPFYQPNECGKALCVRPDVMELDELYEFPEYSRDPTMYLALRNLILALWYTNCKEALTPQKCIPHIIVRGLVRIRCVQEVERILYFMTRKGLINTGVLSVGADQYLLPKDYHNKSVIIIGAGPAGLAAARQLHNFGIKVTVLEAKDRIGGRVWDDKSFKGVTVGRGAQIVNGCINNPVALMCEQLGISMHKFGERCDLIQEGGRITDPTIDKRMDFHFNALLDVVSEWRKDKTQLQDVPLGEKIEEIYKAFIKESGIQFSELEGQVLQFHLSNLEYACGSNLHQVSARSWDHNEFFAQFAGDHTLLTPGYSVIIEKLAEGLDIQLKSPVQCIDYSGDEVQVTTTDGTGYSAQKVLVTVPLALLQKGAIQFNPPLSEKKMKAINSLGAGIIEKIALQFPYRFWDSKVQGADFFGHVPPSASKRGLFAVFYDMDPQKKHSVLMSVIAGEAVASVRTLDDKQVLQQCMATLRELFKEQEVPDPTKYFVTRWSTDPWIQMAYSFVKTGGSGEAYDIIAEDIQGTVFFAGEATNRHFPQTVTGAYLSGVREASKIAAF
For B1, the binding entry in assay [2] is listed as “binds”.

B2: MBD5 (endogenous, HeLa) (protein, UniProt Q9P267 1-1494)
chain: MNGGKECDGGDKEGGLPAIQVPVGWQRRVDQNGVLYVSPSGSLLSCLEQVKTYLLTDGTCKCGLECPLILPKVFNFDPGAAVKQRTAEDVKADEDVTKLCIHKRKIIAVATLHKSMEAPHPSLVLTSPGGGTNATPVVPSRAATPRSVRNKSHEGITNSVMPECKNPFKLMIGSSNAMGRLYVQELPGSQQQELHPVYPRQRLGSSEHGQKSPFRGSHGGLPSPASSGSQIYGDGSISPRTDPLGSPDVFTRSNPGFHGAPNSSPIHLNRTPLSPPSVMLHGSPVQSSCAMAGRTNIPLSPTLTTKSPVMKKPMCNFSTNMEIPRAMFHHKPPQGPPPPPPPSCALQKKPLTSEKDPLGILDPIPSKPVNQNPVIINPTSFHSNVHSQVPMMNVSMPPAVVPLPSNLPLPTVKPGHMNHGSHVQRVQHSASTSLSPSPVTSPVHMMGTGIGRIEASPQRSRSSSTSSDHGNFMMPPVGPQATSSGIKVPPRSPRSTIGSPRPSMPSSPSTKSDGHHQYKDIPNPLIAGISNVLNTPSSAAFPTASAGSSSVKSQPGLLGMPLNQILNQHNAASFPASSLLSAAAKAQLANQNKLAGNNSSSSSNSGAVAGSGNTEGHSTLNTMFPPTANMLLPTGEGQSGRAALRDKLMSQQKDALRKRKQPPTTVLSLLRQSQMDSSAVPKPGPDLLRKQGQGSFPISSMSQLLQSMSCQSSHLSSNSTPGCGASNTALPCSANQLHFTDPSMNSSVLQNIPLRGEAVHCHNANTNFVHSNSPVPNHHLAGLINQIQASGNCGMLSQSGMALGNSLHPNPPQSRISTSSTPVIPNSIVSSYNQTSSEAGGSGPSSSIAIAGTNHPAITKTTSVLQDGVIVTTAAGNPLQSQLPIGSDFPFVGQEHALHFPSNSTSNNHLPHPLNPSLLSSLPISLPVNQQHLLNQNLLNILQPSAGEGDMSSINNTLSNHQLTHLQSLLNNNQMFPPNQQQQQLLQGYQNLQAFQGQSTIPCPANNNPMACLFQNFQVRMQEDAALLNKRISTQPGLTALPENPNTTLPPFQDTPCELQPRIDPSLGQQVKDGLVVGGPGDASVDAIYKAVVDAASKGMQVVITTAVNSTTQISPIPALSAMSAFTASIGDPLNLSSAVSAVIHGRNMGGVDHDGRLRNSRGARLPKNLDHGKNVNEGDGFEYFKSASCHTSKKQWDGEQSPRGERNRWKYEEFLDHPGHIHSSPCHERPNNVSTLPFLPGEQHPILLPPRNCPGDKILEENFRYNNYKRTMMSFKERLENTVERCAHINGNRPRQSRGFGELLSTAKQDLVLEEQSPSSSNSLENSLVKDYIHYNGDFNAKSVNGCVPSPSDAKSISSEDDLRNPDSPSSNELIHYRPRTFNVGDLVWGQIKGLTSWPGKLVREDDVHNSCQQSPEEGKVEPEKLKTLTEGLEAYSRVRKRNRKSGKLNNHLEAAIHEAMSELDKMSGTVHQIPQGDRQMRPPKPKRRKISR
B2: in assay [3], the binding result is given as “binds”.
